Reference: PubChem BioAssay AID434947 (Broad Institute, 2010)
About 15 (0.7%) of roughly 2,200 compounds were called active.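 Rule for the calls: active = fitted half-maximal concentration for loss of luminescence signal no more than a set limit of log units above the top tested concentration; inconclusive = flat fit with 30 to 70% signal loss, or invalid fit; inactive = half-maximal concentration above that set limit.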 The list shows a part of the results.

experiment: inhibitors of ADP-Glo detection reagents, dose response, artefact control for GSK3beta inhibitor project, biochemical, luminescence, cell-free, homogeneous (AID 434947); conditions: 5 uM ADP;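 note: kinase-free counter screen of ADP-Glo detection reagents for GSK3beta hits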

EC50, inactive:
CCN(Cc1ccccc1)S(=O)(=O)c1ccc2c(c1)NC(=O)CC(=O)N2 > 30 µM, COc1ccc(-c2c(N)nnc3c2[nH]c2ccccc23)cc1OC > 30 µM, O=C(CSc1nnc(CNC(=O)c2c(F)cccc2F)o1)NCc1ccc(F)cc1 > 30 µM, CC(C)OCCCNC(=O)c1ccc(CS(=O)(=O)Cc2ccccc2F)o1 > 30 µM, Cc1cccc(Nc2nc(N3CCN(C)CC3)nc(N)c2[N+](=O)[O-])c1 > 30 µM, Cc1cc(C)c(C)c(S(=O)(=O)Nc2ccccc2C(=O)NCCCn2ccnc2)c1C > 30 µM, Cc1ccsc1C1NC(=O)c2c(sc3c2CCCC3)N1 (stereo not drawn) > 30 µM, COc1ccc(-c2nn(-c3ccccc3)cc2/C=N/NS(=O)(=O)c2ccccc2)cc1 > 30 µM, CC(C)Nc1nc(-c2ccncc2)nc(-c2ccc(Cl)cc2)c1C#N > 30 µM, COc1ccc(CN(CC(=O)NCCc2ccccc2)C(=O)CCC(=O)Nc2ccccn2)cc1 > 30 µM, CN(C)Cc1c(O)ccc2c3c(c(=O)oc12)CCCCC3 > 30 µM, COC(=O)c1ccc(O)cc1 > 30 µM, COc1ccc(N(C(=O)c2ccncc2)S(=O)(=O)c2cccc([N+](=O)[O-])c2)cc1 > 30 µM, CC[n+]1c(/C=C/Nc2ccccc2)sc2ccccc21 > 30 µM, CC1(C)CC(CCNC(=O)CCl)(c2ccccc2)CCO1 (stereo not drawn) > 30 µM, Oc1[nH]c2ccccc2c1C=Nc1ccc2c(c1)OCO2 > 30 µM, Nc1nonc1-n1nnc(C(=O)N/N=C/c2cccc(O)c2)c1CN1CCCC1 > 30 µM, COC(=O)CSc1ccc2nnc(-c3ccc(OC)c(OC)c3)n2n1 > 30 µM, O=C(OCCN1CCCCC1)c1ccc(O)cc1 > 30 µM, O=C(COc1ccccc1)Nc1ccc2c(c1)C(=O)N(CC1CCCO1)C2=O (stereo not drawn) > 30 µM, O=C(NNC(=O)C1[C@H]2CCCC[C@@H]12)c1ccc(=O)oc1 (stereo partly drawn) > 30 µM, COC(=O)c1ccc(NC(C(=O)OC)C(C)C)c([N+](=O)[O-])c1 (stereo not drawn) > 30 µM, CN1CCN(CCC2Oc3cc([N+](=O)[O-])ccc3NC2=O)CC1 (stereo not drawn) > 30 µM, CCCCc1cc(=O)oc2cc(OCC(=O)N(CC)CC)ccc12 > 30 µM, CC(C)CCNc1nc(N)c([N+](=O)[O-])c(NCC2CCCO2)n1 (stereo not drawn) > 30 µM, Cc1cc(N2CCN(C(=O)c3ccco3)CC2)c2ccccc2n1 > 30 µM, COC(CNc1nc(SC)nc2sc3c(c12)CCN(C)C3)OC > 30 µM, Cc1nc(C)c(-c2csc(Nc3ccc(C(=O)O)c(O)c3)n2)s1 > 30 µM, Cc1cc(NC(=O)CSc2nc(-c3ccccc3)c(C#N)c(=O)[nH]2)no1 > 30 µM, COC(=O)C1=C(C)N(CCCC(=O)O)C(=O)NC1c1ccc([N+](=O)[O-])cc1 (stereo not drawn) > 30 µM, CCN(CC)Cc1c(C(=O)N/N=C/c2ccncc2)nnn1-c1nonc1N > 30 µM, O=C1CC(c2ccc(O)cc2)Oc2cc(O)ccc21 (stereo not drawn) > 30 µM, CCCCc1cc(=O)oc2cc(OS(C)(=O)=O)ccc12 > 30 µM, COc1ccc2occ(C(=O)c3cccs3)c2c1 > 30 µM, CCOC(=O)C1CCN(CC(O)COC(CC)c2ccccc2)CC1 (stereo not drawn) > 30 µM, COc1cccc(C(=O)N/N=C/c2ccc(Oc3ccc([N+](=O)[O-])cn3)c(OC)c2)c1 > 30 µM, O=C(Nc1ccc(N2CCN(Cc3ccccc3)CC2)cc1)c1ccccc1[N+](=O)[O-] > 30 µM, CC(CC(=O)N1CCN(c2cccc(Cl)c2)CC1)S(=O)(=O)c1ccc2c(c1)NC(=O)CO2 (stereo not drawn) > 30 µM, O=C1N/C(=N/S(=O)(=O)Cc2ccccc2)S/C1=C/c1ccc2c(c1)OCO2 > 30 µM, CC(C)C(=O)NC(=S)Nc1ccc(S(=O)(=O)N2CCCC2)cc1 > 30 µM, CN(C)Cc1c(O)ccc2occ(C(=O)c3ccccc3)c12 > 30 µM, O=[N+]([O-])c1ccccc1Oc1ccc(Cl)c2cccnc12 > 30 µM, O=C1CC(c2ccc(O)c(O)c2)Oc2cc(O)cc(O)c21 (stereo not drawn) > 30 µM, Nc1nc(Nc2ccccc2)nc(NC2CCCCC2)c1[N+](=O)[O-] > 30 µM, CN(c1ncnc(N)c1[N+](=O)[O-])C1CCS(=O)(=O)C1 (stereo not drawn) > 30 µM, COc1ccc(-c2nn(-c3ccccc3)cc2/C=N/Nc2ccccn2)cc1OC > 30 µM, COCCCNC(=O)c1cccn2c(=O)c3cc4ccccc4cc3nc12 > 30 µM, COC(=O)CSc1nnc(-c2ccncc2)o1 > 30 µM, O=C(NC1CCCCCC1)C1CCCN(S(=O)(=O)c2cccs2)C1 (stereo not drawn) > 30 µM, COc1cccc(C(=O)Nc2nc3ccccc3s2)c1 > 30 µM, COc1cccc(Nc2nc(-c3ccccc3)nc3ccccc23)c1 > 30 µM, COc1c(CC=C(C)C)cc(C2CC(=O)c3c(O)cc(O)cc3O2)c(CC=C(C)C)c1O (stereo not drawn) > 30 µM, Cc1ccc(CSc2nnc(-c3ccncc3)o2)c(C)c1 > 30 µM, Cc1ccc(C)c(Nc2nc(-c3ccncc3)nc3ccccc23)c1 > 30 µM, O=C1C2C3C=CC(C3)C2C(=O)N1CCCCCCN1C(=O)C2C3C=CC(C3)C2C1=O (stereo not drawn) > 30 µM, OC(CNc1nc(-c2cccnc2)nc2ccccc12)c1ccccc1 (stereo not drawn) > 30 µM, CCn1c(SCC(=O)Nc2ccc(NC(C)=O)cc2)nnc1C1CC1 > 30 µM, COc1ccc(CNC(=O)CN(Cc2ccco2)C(=O)CCC(=O)Nc2ccccn2)cc1 > 30 µM
